Among the data in PMC3691238 are binding values, retold here.

By UniProt entry, the sequences of proteins in these tests, tags left out. Where a name states a change or a piece, a line headed by the entry shows the natural chain unless it says otherwise. Residues count along the entry.
UniProt P30101, residues 25-505: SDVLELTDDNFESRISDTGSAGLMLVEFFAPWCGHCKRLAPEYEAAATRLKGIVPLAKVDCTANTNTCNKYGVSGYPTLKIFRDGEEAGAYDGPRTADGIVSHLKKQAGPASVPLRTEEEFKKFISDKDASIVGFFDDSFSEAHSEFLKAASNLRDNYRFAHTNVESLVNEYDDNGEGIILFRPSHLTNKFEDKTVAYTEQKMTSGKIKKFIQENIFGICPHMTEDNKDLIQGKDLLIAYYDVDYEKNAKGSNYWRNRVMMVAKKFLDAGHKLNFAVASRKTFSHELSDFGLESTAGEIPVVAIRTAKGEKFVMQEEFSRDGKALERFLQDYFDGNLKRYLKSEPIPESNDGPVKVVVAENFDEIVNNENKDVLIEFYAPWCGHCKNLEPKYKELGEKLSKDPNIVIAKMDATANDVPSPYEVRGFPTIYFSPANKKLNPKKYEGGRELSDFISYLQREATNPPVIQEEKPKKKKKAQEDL
UniProt P27824, residues 21-592: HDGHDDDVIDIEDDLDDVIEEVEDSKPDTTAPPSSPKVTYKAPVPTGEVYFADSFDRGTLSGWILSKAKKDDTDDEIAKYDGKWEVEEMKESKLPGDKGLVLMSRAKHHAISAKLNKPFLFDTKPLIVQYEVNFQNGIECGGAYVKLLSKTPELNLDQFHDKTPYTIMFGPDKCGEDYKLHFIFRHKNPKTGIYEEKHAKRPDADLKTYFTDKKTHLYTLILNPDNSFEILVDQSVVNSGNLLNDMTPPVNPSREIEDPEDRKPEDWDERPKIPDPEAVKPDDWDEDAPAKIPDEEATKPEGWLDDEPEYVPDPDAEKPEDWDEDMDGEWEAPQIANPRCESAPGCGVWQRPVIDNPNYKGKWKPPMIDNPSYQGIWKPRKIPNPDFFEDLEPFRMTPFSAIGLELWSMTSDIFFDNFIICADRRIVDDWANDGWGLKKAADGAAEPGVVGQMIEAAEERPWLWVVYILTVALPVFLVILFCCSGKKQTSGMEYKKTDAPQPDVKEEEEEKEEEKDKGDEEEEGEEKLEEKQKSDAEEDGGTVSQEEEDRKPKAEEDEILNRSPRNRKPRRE
UniProt P20848: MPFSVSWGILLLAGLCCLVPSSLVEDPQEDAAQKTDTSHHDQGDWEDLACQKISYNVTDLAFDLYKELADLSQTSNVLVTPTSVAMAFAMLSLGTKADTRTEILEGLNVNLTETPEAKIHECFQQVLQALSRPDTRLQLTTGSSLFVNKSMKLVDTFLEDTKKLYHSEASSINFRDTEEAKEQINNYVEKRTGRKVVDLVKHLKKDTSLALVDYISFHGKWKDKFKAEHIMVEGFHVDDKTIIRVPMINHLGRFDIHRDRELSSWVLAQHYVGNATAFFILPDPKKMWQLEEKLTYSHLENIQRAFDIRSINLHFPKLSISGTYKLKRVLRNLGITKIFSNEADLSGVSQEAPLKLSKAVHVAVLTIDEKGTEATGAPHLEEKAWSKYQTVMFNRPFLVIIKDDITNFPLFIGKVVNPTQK

Results are given in words; binding and its absence hold for the method and conditions named. Binding seen in cells or lysates may run through a third protein. A result given as binding can be weak or reduced; the word gives no strength.

The target of experiment [1] is Protein Disulfide-Isomerase A3 (PDIA3) (human (endogenous in HeLa)) (UniProt P30101). In words: proximity ligation; HeLa cells stably expressing V5-tagged SERPINA2 or SERPINA1 variants, fixed in ice-cold methanol; antibodies against V5 and CANX or V5 and PDIA3; Duolink kit, rolling-circle amplification; spots per positive cell counted with Duolink image tool.
In experiment [2] the target is calnexin (CANX) (human (endogenous in HeLa)) (UniProt P27824). Described as above.

Take “SERPINA2 variant V3 (P308-E320), V5-tagged (from UniProt P20848)”: the binding result in experiment [1] and in experiment [2] was “binds” each time.
On to “SERPINA2 variant V1 (P308-K320), V5-tagged (from UniProt P20848)”, for which the binding result in experiment [1] and in experiment [2] was “binds” in each case.
On to “SERPINA2 variant V2 (L308-E320), V5-tagged (from UniProt P20848)”, for which the binding entry in experiment [1] and in experiment [2] was “binds” throughout.
